# Laboratory results as given in paper PMC5727176.
# The chains behind the UniProt entries cited, without tags or fusion partners. Residues count along the entry.
# UniProt P25799, residues 1-431: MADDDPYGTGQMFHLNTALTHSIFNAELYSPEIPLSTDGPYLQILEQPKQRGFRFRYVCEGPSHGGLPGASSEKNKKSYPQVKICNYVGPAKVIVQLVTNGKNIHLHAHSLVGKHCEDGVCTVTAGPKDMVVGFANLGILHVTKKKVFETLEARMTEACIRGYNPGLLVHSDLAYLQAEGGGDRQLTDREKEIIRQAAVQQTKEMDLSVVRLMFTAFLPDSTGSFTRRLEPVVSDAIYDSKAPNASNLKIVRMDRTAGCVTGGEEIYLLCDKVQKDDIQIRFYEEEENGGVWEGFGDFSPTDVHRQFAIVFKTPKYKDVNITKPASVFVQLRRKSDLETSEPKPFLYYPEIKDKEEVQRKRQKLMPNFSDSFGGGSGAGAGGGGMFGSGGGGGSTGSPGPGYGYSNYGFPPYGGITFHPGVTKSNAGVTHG
# T1: FLAG–IκBζ (UniProt Q9EST8)
# T1 sequence: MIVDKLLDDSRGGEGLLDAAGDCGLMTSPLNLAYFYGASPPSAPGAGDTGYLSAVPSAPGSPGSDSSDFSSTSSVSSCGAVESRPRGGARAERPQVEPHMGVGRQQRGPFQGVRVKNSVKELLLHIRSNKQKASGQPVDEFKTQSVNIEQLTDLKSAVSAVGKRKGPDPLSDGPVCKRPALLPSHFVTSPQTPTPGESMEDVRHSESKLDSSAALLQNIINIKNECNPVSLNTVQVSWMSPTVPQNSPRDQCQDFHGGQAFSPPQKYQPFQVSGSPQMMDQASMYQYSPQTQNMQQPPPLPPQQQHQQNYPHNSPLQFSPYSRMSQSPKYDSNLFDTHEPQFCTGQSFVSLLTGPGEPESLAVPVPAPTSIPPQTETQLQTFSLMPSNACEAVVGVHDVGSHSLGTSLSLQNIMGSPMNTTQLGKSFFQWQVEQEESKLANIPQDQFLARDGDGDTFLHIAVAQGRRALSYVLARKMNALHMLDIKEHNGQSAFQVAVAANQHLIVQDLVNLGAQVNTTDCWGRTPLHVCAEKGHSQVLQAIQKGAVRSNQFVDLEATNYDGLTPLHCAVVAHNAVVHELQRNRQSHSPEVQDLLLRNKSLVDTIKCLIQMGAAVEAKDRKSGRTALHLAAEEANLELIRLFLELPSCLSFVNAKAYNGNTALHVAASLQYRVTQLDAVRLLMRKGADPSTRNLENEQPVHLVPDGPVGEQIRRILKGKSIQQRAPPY
# B1: JunB (protein, UniProt P09450 1-344)
# chain: MCTKMEQPFYHDDSYAAAGYGRSPGSLSLHDYKLLKPTLALNLADPYRGLKGPGARGPGPEGSGAGSYFSGQGSDTGASLKLASTELERLIVPNSNGVITTTPTPPGQYFYPRGGGSGGGTGGGVTEEQEGFADGFVKALDDLHKMNHVTPPNVSLGASGGPQAGPGGVYAGPEPPPVYTNLSSYSPASAPSGGSGTAVGTGSSYPTATISYLPHAPPFAGGHPAQLGLSRGASAFKEEPQTVPEARSRDATPPVSPINMEDQERIKVERKRLRNRLAATKCRKRKLERIARLEDKVKTLKAENAGLSSAAGLLREQVAQLKQKVMTHVSNGCQLLLGVKGHAF
# Experiments:
# FLAG–IκBζ [1] = molecular target: T1, FLAG–IκBζ; test: affinity purification with mass spectrometry; FLAG–IκBζ precipitated with anti-FLAG (M2) agarose from sonicated nuclei of RAW264.7 cells stimulated with ZnSO4 and LPS (140 mM KCl, 0.5% NP-40, 5% glycerol, 20 mM HEPES pH 8.0); bands cut from SDS-PAGE, LC-MS/MS
# FLAG–IκBζ [2] = molecular target: T1, FLAG–IκBζ; test: as above; remark: listed apart in the source
molecule,measurement,setting,value
NF-κB p50 subunit (from UniProt P25799 1-431),binding,FLAG–IκBζ [1],binds
B1,binding,FLAG–IκBζ [2],binds

# Read-outs that look alike come from different tables or passages of the source. Results are given in words; binding and its absence hold for the method and conditions named. Binding seen in cells or lysates may run through a third protein. A yes stands for co-enrichment or nearness to the bait. Other partners may have been found. Tags and fused reporters may be left off the sequences shown.
